Results deposited as PubChem BioAssay AID652243 (Drosophila RNAi Screening Center, 2013).

- Test: 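Fly genes required for human androgen receptor driven transcription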 (primary screen)
- Cell system: Drosophila S2R+ cells
- Knock-down reagent: long dsRNA against Drosophila genes
- Duration: 72 h (48 h, then 24 h hormone)
- Treatment: synthetic androgen R1881 at 10 nM for 24 h
- Detection: 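Firefly light from an androgen-responsive reporter and Renilla control light per well, raw and unnormalised, for each of two replicates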
- Scale: firefly reporter light: higher = more light from androgen-responsive reporter; Renilla control light: higher = more constitutive control signal (cell number, transfection)
- Rule for the call: 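Hit when the log firefly-to-Renilla ratio dropped or increased by a fixed fold versus the mean of GFP or LacZ controls across duplicate plates; lowering cut given as 1.5 and as 3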
- Meaning of the calls: active = hit: reporter lowered or raised; inactive = no hit
The deposit covers about 24,000 reagents; this is a random part of those with a known target gene and a result. Of all reagents, 246 (1%) are marked active. 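Plates not normalised; calls are printed but the firefly/Renilla ratio behind them is not deposited; fold cut for lowering reported inconsistently.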 Raw values are not corrected between plates. Not stated in the record: the amount of reagent.

gene | dsRNA | firefly reporter light, replicate 1 | firefly reporter light, replicate 2 | Renilla control light, replicate 1 | Renilla control light, replicate 2 | activity call
CG32333 | DRSC08627 | 9.84e5 | 9.34e5 | 1.33e6 | 1.26e6 | inactive
CG32333 | DRSC08629 | 40185 | 62863 | 5.14e5 | 7.88e5 | inactive
Acbp5 | DRSC10548 | 2.78e5 | 2.26e5 | 2.78e6 | 2.61e6 | inactive
mge | DRSC08721 | 1.53e5 | 1.67e5 | 1.66e6 | 2.22e6 | inactive
CG17385 | DRSC06664 | 46695 | 1.04e5 | 6.97e5 | 6.97e5 | inactive
CG17385 | DRSC26999 | 5.80e5 | 3.96e5 | 8.87e5 | 7.17e5 | inactive
pasi1 | DRSC16299 | 6.65e5 | 6.70e5 | 2.07e6 | 1.46e6 | inactive
pasi1 | DRSC22385 | 8.72e5 | 6.60e5 | 3.35e6 | 2.48e6 | inactive
pasi1 | DRSC26688 | 3.53e5 | 2.42e5 | 5.94e5 | 6.08e5 | inactive
Icmt | DRSC09834 | 2.15e5 | 1.76e5 | 2.14e6 | 2.02e6 | inactive
CG31544 (retired record) | DRSC12466 | 1.51e5 | 1.07e5 | 3.27e5 | 3.92e5 | inactive
lncRNA:CR9284 | DRSC03899 | 1.79e5 | 1.45e5 | 2.98e5 | 3.06e5 | inactive
lncRNA:CR9284 | DRSC04536 | 8.81e5 | 6.35e5 | 1.67e6 | 1.76e6 | inactive
CG15450 | DRSC20522 | 2.52e5 | 3.43e5 | 2.37e6 | 2.58e6 | inactive
CG7252 | DRSC10789 | 1.00e6 | 5.25e5 | 1.22e6 | 7.83e5 | inactive
CG7252 | DRSC21492 | 1.05e6 | 9.06e5 | 5.30e5 | 4.02e5 | inactive
CG30148 | DRSC06391 | 4.23e5 | 4.93e5 | 2.63e6 | 3.38e6 | inactive
lncRNA:CR31386 | DRSC23186 | 7.95e5 | 7.88e5 | 1.47e6 | 1.27e6 | inactive
lncRNA:CR31386 | DRSC25849 | 5.18e5 | 3.38e5 | 7.93e5 | 7.57e5 | inactive
CG1208 | DRSC12190 | 42502 | 39335 | 4.16e5 | 4.74e5 | inactive
CG13337 | DRSC06371 | 1.23e5 | 76808 | 2.00e6 | 2.00e6 | inactive
CG13337 | DRSC28309 | 4.71e5 | 7.84e5 | 1.16e6 | 1.94e6 | inactive
CG13896 | DRSC08366 | 1.05e5 | 1.22e5 | 1.14e6 | 1.51e6 | inactive
CG10068 | DRSC12508 | 41357 | 36565 | 1.87e5 | 1.86e5 | inactive
CG13408 | DRSC13534 | 93496 | 55483 | 1.80e5 | 1.33e5 | inactive
CG13408 | DRSC14584 | 3.38e5 | 4.22e5 | 3.52e6 | 2.97e6 | inactive
Rpn8 | DRSC04624 | 95427 | 1.16e5 | 8.66e5 | 6.16e5 | inactive
Rpn8 | DRSC29897 | 3.19e5 | 1.95e5 | 7.67e5 | 8.36e5 | inactive
CG6614 | DRSC02974 | 7.95e5 | 1.26e6 | 1.09e6 | 1.72e6 | inactive
CG8289 | DRSC20101 | 78805 | 1.24e5 | 7.28e5 | 6.48e5 | inactive
CG8289 | DRSC25677 | 1.17e6 | 9.87e5 | 1.27e6 | 1.34e6 | inactive
CG34173 | DRSC38728 | 1.16e6 | 9.15e5 | 1.97e6 | 1.98e6 | inactive
CG43102 | DRSC14797 | 4.51e5 | 7.85e5 | 1.09e6 | 1.93e6 | inactive
CG43102 | DRSC16239 | 1.83e5 | 1.35e5 | 1.13e6 | 1.14e6 | inactive
CG43102 | DRSC28809 | 6.40e5 | 6.58e5 | 1.00e6 | 1.17e6 | inactive
CG34124 | DRSC00849 | 1.23e5 | 1.43e5 | 3.66e5 | 3.88e5 | inactive
Nup44A | DRSC07248 | 1.13e6 | 4.73e5 | 2.14e6 | 1.30e6 | inactive
Nup44A | DRSC28141 | 3.06e5 | 3.89e5 | 1.30e6 | 1.09e6 | inactive
Gas8 | DRSC22884 | 5.07e5 | 8.67e5 | 4.85e5 | 7.27e5 | inactive
Gas8 | DRSC29253 | 4.09e5 | 4.52e5 | 1.60e6 | 1.37e6 | inactive
Atf6 | DRSC04743 | 5.68e5 | 9.51e5 | 1.10e6 | 1.92e6 | inactive
Atf6 | DRSC04889 | 3.36e5 | 5.20e5 | 2.16e6 | 2.29e6 | inactive
Atf6 | DRSC28936 | 4.95e5 | 3.36e5 | 9.56e5 | 9.92e5 | inactive
CG11961 | DRSC06099 | 4.15e5 | 5.82e5 | 4.94e5 | 4.64e5 | inactive
CG33309 | DRSC01421 | 2.25e5 | 2.06e5 | 7.70e5 | 7.89e5 | inactive
hry | DRSC23249 | 6.55e5 | 8.16e5 | 1.18e6 | 1.55e6 | inactive
hry | DRSC30106 | 7.61e5 | 8.10e5 | 1.39e6 | 1.32e6 | inactive
kug | DRSC10911 | 53366 | 62166 | 3.37e5 | 4.24e5 | inactive
Ace | DRSC14100 | 79585 | 35979 | 5.71e5 | 4.55e5 | inactive
Ace | DRSC25364 | 1.23e6 | 1.11e6 | 8.01e5 | 6.64e5 | inactive
smog | DRSC00334 | 82909 | 80584 | 7.83e5 | 6.44e5 | inactive
smog | DRSC23053 | 77688 | 1.17e5 | 5.26e5 | 6.29e5 | active
smog | DRSC27223 | 5.47e5 | 6.64e5 | 6.34e5 | 6.35e5 | inactive
Creld | DRSC00308 | 63900 | 51643 | 5.43e5 | 4.28e5 | inactive
Creld | DRSC29338 | 3.80e5 | 4.66e5 | 1.21e6 | 1.21e6 | inactive
lwr | DRSC00828 | 9.35e5 | 1.01e6 | 1.79e6 | 1.40e6 | inactive
lwr | DRSC27034 | 4.48e5 | 2.51e5 | 5.27e5 | 3.59e5 | inactive
mod | DRSC16999 | 1.55e5 | 1.15e5 | 8.21e5 | 5.97e5 | inactive
mod | DRSC28409 | 3.86e5 | 7.33e5 | 5.03e5 | 1.19e6 | inactive
